Paper doi:10.1101/646075 (bioRxiv, 2019)
Read-outs that look alike come from different tables or passages of the source. No constants are given. Whether binding was seen depends on the method and setting. Some entries that bind do so weakly or less than the wild type.

The chains behind the UniProt entries cited, without tags or fusion partners. Where a name states a change or a piece, a line headed by the entry shows the natural chain unless it says otherwise. A line that says so, or that is headed by a name, gives the form on record, which may keep a tag or linker. Residues count along the entry.
UniProt P02768, residues 25-609: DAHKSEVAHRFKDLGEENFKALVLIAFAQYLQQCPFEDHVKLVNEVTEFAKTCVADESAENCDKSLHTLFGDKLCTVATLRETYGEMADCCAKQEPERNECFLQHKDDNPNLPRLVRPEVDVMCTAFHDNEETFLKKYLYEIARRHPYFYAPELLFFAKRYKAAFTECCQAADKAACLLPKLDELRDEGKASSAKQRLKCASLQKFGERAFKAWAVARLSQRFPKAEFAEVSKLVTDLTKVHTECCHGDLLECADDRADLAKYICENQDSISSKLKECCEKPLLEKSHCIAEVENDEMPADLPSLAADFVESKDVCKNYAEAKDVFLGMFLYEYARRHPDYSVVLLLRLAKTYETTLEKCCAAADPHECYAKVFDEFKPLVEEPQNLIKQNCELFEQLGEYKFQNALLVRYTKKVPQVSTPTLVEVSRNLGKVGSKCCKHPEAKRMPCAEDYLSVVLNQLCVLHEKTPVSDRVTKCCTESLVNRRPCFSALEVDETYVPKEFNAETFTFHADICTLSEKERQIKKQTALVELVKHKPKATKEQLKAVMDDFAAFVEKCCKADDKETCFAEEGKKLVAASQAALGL
apo-transferrin (iron-unbound transferrin) (P02787, residues 20-698): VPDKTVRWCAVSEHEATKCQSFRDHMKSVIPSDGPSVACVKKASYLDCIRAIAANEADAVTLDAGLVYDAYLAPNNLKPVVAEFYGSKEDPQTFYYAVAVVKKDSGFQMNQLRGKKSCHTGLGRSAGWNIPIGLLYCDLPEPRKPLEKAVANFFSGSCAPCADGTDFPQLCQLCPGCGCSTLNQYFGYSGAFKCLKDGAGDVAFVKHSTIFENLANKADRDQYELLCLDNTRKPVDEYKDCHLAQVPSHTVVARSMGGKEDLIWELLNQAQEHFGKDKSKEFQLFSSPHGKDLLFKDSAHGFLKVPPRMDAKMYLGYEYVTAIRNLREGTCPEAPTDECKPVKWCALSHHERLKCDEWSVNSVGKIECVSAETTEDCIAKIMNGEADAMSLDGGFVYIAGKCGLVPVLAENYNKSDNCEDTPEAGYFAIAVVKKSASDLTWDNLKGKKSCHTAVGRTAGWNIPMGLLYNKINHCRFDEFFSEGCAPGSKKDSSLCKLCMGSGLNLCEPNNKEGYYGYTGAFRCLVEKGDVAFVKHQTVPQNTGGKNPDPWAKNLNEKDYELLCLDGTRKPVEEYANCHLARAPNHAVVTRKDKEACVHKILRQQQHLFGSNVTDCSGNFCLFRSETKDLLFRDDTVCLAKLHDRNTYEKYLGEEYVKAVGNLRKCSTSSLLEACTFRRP
Tf mutant (E333R and E338R) (P02787, form named): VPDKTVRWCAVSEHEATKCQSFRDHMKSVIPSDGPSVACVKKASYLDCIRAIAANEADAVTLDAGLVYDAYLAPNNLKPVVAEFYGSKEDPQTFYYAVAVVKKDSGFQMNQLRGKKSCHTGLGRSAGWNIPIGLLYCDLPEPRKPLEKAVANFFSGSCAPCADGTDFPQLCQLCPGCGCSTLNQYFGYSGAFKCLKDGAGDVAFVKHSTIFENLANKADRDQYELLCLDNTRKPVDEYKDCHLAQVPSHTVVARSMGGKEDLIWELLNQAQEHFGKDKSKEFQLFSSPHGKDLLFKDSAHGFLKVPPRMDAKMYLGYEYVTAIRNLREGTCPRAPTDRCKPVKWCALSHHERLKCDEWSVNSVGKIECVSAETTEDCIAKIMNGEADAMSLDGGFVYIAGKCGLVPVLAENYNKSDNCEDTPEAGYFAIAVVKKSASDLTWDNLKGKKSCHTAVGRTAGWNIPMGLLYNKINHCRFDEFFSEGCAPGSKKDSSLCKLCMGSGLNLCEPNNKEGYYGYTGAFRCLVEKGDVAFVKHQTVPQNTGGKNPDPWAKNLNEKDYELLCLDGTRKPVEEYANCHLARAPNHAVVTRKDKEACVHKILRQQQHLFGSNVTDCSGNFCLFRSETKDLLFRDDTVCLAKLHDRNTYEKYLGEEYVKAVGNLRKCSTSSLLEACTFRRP
UniProt P01008, residues 33-464: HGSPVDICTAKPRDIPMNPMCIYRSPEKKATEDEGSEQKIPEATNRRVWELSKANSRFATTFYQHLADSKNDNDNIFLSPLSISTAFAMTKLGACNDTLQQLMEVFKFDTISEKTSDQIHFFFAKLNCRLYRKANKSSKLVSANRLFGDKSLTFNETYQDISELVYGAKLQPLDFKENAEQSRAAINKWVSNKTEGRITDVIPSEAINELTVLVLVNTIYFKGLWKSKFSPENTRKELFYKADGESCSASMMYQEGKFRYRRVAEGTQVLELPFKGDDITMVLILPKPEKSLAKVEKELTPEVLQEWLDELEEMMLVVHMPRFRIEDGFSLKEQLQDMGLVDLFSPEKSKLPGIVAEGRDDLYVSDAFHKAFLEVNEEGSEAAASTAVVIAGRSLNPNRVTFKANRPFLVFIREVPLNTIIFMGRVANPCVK

What was measured:
Assay in all cases: SPR
[1] = molecular target: human serum albumin (human) (UniProt P02768)
[2] = molecular target: human serum albumin (human) (UniProt P02768); remark: listed apart in the source
[3] = molecular target: Tf mutant (E333R and E338R) (human) (UniProt P02787)
[4] = molecular target: apo-transferrin (iron-unbound transferrin) (human) (UniProt P02787)

antithrombin III (from UniProt P01008 33-464)
binding [1]: no binding

B1: human α-FXIIa (enzyme)
chain 1: IPPWEAPKEHKYKAEEHTVVLTVTGEPCHFPFQYHRQLYHKCTHKGRPGPQPWCATTPNFDQDQRWGYCLEPKKVKDHCSKHSPCQKGGTCVNMPSGPHCLCPQHLTGNHCQKEKCFEPQLLRFFHKNEIWYRTEQAAVARCQCKGPDAHCQRLASQACRTNPCLHGGRCLEVEGHRLCHCPVGYTGAFCDVDTKASCYDGRGLSYRGLARTTLSGAPCQPWASEATYRNVTAEQARNWGLGGHAFCRNPDNDIRPWCFVLNRDRLSWEYCDLAQCQTPTQAAPPTPVSPRLHVPLMPAQPAPPKPQPTTRTPPQSQTPGALPAKREQPPSLTRNGPLSCGQRLRKSLSSMTR
chain 2: VVGGLVALRGAHPYIAALYWGHSFCAGSLIAPCWVLTAAHCLQDRPAPEDLTVVLGQERRNHSCEPCQTLAVRSYRLHEAFSPVSYQHDLALLRLQEDADGSCALLSPYVQPVCLPSGAARPSETTLCQVAGWGHQFEGAEEYASFLQEAQVPFLSLERCSAPDVHGSSILPGMLCAGFLEGGTDACQGDSGGPLVCEDQAAERRLTLQGIISWGSGCGDRNKPGVYTDVAYYLAWIREHTVS
binding [2]: no binding
binding [3]: binds weakly

RKKGIRRYTERHSNIE [TH16-scr (scrambled control of TH16)]
binding [4]: no binding

SCPTHYSRQRCRNAVLER [FX18-scr (scrambled control of FX18)]
binding [4]: no binding
